Source: PubChem BioAssay AID1259405 (NCATS, 2018)
Shown is an unselected part of about 50,000 reagents tested. Of all reagents, about 4,000 (8%) are marked active. 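Mouse siRNA library applied to hamster cells; one well for each siRNA.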 The numbers tell different reagents against one gene apart.

- Assay: 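Mouse-designed siRNAs used to find CHO productivity engineering targets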 (primary screen)
- System: Chinese hamster CHO-K1 ovary cells with stable secreted eGFP expression
- Reagents: single siRNA against mouse genes, 0.8 pmol siRNA per well (2 µl of 400 nM stock)
- Timing: 3 days
- Measurement: 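Per-well intracellular GFP measured by laser scanning cytometry, plus viability from ATP luminescence, each relative to plate median of non-targeting control wells, in %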
- Direction: GFP, % of control: higher = more GFP per well, higher productivity; viability (ATP), % of control: higher = more viable cells (more ATP)
- Active means: 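a knock-down is called active if GFP reaches 120% or more of non-targeting control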

| Target gene | reagent | GFP, % of control | viability (ATP), % of control | outcome |
| --- | --- | --- | --- | --- |
| Or56b34 (olfactory receptor family 56 subfamily B member 34) | 1 | 118 | 70.5 | inactive |
| Or56b34 (olfactory receptor family 56 subfamily B member 34) | 2 | 82.1 | 72.7 | inactive |
| Or56b34 (olfactory receptor family 56 subfamily B member 34) | 3 | 83.5 | 91.5 | inactive |
| Rassf7 | 1 | 193 | 91.3 | active |
| Rassf7 | 2 | 50.7 | 47.5 | inactive |
| Rassf7 | 3 | 93 | 82.7 | inactive |
| Tomm40 (translocase of outer mitochondrial membrane 40) | 1 | 64.7 | 78.1 | inactive |
| Tomm40 (translocase of outer mitochondrial membrane 40) | 2 | 96.6 | 101 | inactive |
| Tomm40 (translocase of outer mitochondrial membrane 40) | 3 | 169 | 140 | active |
| Vmn1r54 (vomeronasal 1 receptor 54) | 1 | 34.8 | 50 | inactive |
| Vmn1r54 (vomeronasal 1 receptor 54) | 2 | 79 | 56.4 | inactive |
| Vmn1r54 (vomeronasal 1 receptor 54) | 3 | 50.8 | 78.4 | inactive |
| Hp1bp3 (heterochromatin protein 1, binding protein 3) | 1 | 51.5 | 75.5 | inactive |
| Hp1bp3 (heterochromatin protein 1, binding protein 3) | 2 | 90.6 | 80.5 | inactive |
| Hp1bp3 (heterochromatin protein 1, binding protein 3) | 3 | 96.1 | 87.7 | inactive |
| Myl7 (myosin, light polypeptide 7, regulatory) | 1 | 155 | 88 | active |
| Myl7 (myosin, light polypeptide 7, regulatory) | 2 | 116 | 93.7 | inactive |
| Lancl2 (LanC (bacterial lantibiotic synthetase component C)-like 2) | 1 | 71.4 | 74 | inactive |
| Lancl2 (LanC (bacterial lantibiotic synthetase component C)-like 2) | 2 | 62.7 | 69 | inactive |
| Lancl2 (LanC (bacterial lantibiotic synthetase component C)-like 2) | 3 | 76.6 | 71.7 | inactive |
| Mog (myelin oligodendrocyte glycoprotein) | 1 | 72.8 | 67.1 | inactive |
| Mog (myelin oligodendrocyte glycoprotein) | 2 | 75.2 | 80.6 | inactive |
| Mog (myelin oligodendrocyte glycoprotein) | 3 | 58.5 | 53.2 | inactive |
| Bsnd (barttin CLCNK type accessory beta subunit) | 1 | 148 | 74.6 | active |
| Bsnd (barttin CLCNK type accessory beta subunit) | 2 | 72.1 | 82.6 | inactive |
| Bsnd (barttin CLCNK type accessory beta subunit) | 3 | 126 | 167 | active |
| Taf8 (TATA-box binding protein associated factor 8) | 1 | 62.8 | 74.4 | inactive |
| Taf8 (TATA-box binding protein associated factor 8) | 2 | 85.8 | 133 | inactive |
| Taf8 (TATA-box binding protein associated factor 8) | 3 | 90.4 | 101 | inactive |
| Svs4 (seminal vesicle secretory protein 4) | 1 | 74 | 61.4 | inactive |
| Svs4 (seminal vesicle secretory protein 4) | 2 | 99.9 | 108 | inactive |
| Svs4 (seminal vesicle secretory protein 4) | 3 | 145 | 110 | active |
| Hpcal4 (hippocalcin-like 4) | 1 | 74.4 | 70.6 | inactive |
| Hpcal4 (hippocalcin-like 4) | 2 | 72.8 | 68.3 | inactive |
| Grip1 (glutamate receptor interacting protein 1) | 1 | 64.8 | 83 | inactive |
| Grip1 (glutamate receptor interacting protein 1) | 2 | 124 | 122 | active |
| Grip1 (glutamate receptor interacting protein 1) | 3 | 55.5 | 99.3 | inactive |
| Galnt18 (polypeptide N-acetylgalactosaminyltransferase 18) | 1 | 158 | 124 | active |
| Galnt18 (polypeptide N-acetylgalactosaminyltransferase 18) | 2 | 117 | 100 | inactive |
| Galnt18 (polypeptide N-acetylgalactosaminyltransferase 18) | 3 | 116 | 119 | inactive |
| Sppl3 (signal peptide peptidase 3) | 1 | 137 | 113 | active |
| Sppl3 (signal peptide peptidase 3) | 2 | 46.3 | 93.9 | inactive |
| Sppl3 (signal peptide peptidase 3) | 3 | 74.4 | 89.2 | inactive |
| Nutm1 (NUT midline carcinoma, family member 1) | 1 | 87 | 47.4 | inactive |
| Nutm1 (NUT midline carcinoma, family member 1) | 2 | 70.4 | 70.4 | inactive |
| Nutm1 (NUT midline carcinoma, family member 1) | 3 | 59.8 | 33.5 | inactive |
| Tlr5 (toll-like receptor 5) | 1 | 84.7 | 79 | inactive |
| Tlr5 (toll-like receptor 5) | 2 | 139 | 78.3 | active |
| Tlr5 (toll-like receptor 5) | 3 | 74.9 | 77.7 | inactive |
| Lmf2 (lipase maturation factor 2) | 1 | 67.7 | 59.5 | inactive |
| Lmf2 (lipase maturation factor 2) | 2 | 92.6 | 85.7 | inactive |
| Lmf2 (lipase maturation factor 2) | 3 | 60.9 | 72.8 | inactive |
| Angpt1 (angiopoietin 1) | 1 | 49.6 | 59.7 | inactive |
| Angpt1 (angiopoietin 1) | 2 | 50.3 | 52 | inactive |

The list goes on, starting with the last 9 of the part before.
| Target gene | reagent | GFP, % of control | viability (ATP), % of control | outcome |
| --- | --- | --- | --- | --- |
| Nutm1 (NUT midline carcinoma, family member 1) | 3 | 59.8 | 33.5 | inactive |
| Tlr5 (toll-like receptor 5) | 1 | 84.7 | 79 | inactive |
| Tlr5 (toll-like receptor 5) | 2 | 139 | 78.3 | active |
| Tlr5 (toll-like receptor 5) | 3 | 74.9 | 77.7 | inactive |
| Lmf2 (lipase maturation factor 2) | 1 | 67.7 | 59.5 | inactive |
| Lmf2 (lipase maturation factor 2) | 2 | 92.6 | 85.7 | inactive |
| Lmf2 (lipase maturation factor 2) | 3 | 60.9 | 72.8 | inactive |
| Angpt1 (angiopoietin 1) | 1 | 49.6 | 59.7 | inactive |
| Angpt1 (angiopoietin 1) | 2 | 50.3 | 52 | inactive |
| Or13a18 (olfactory receptor family 13 subfamily A member 18) | 1 | 87.5 | 68 | inactive |
| Or13a18 (olfactory receptor family 13 subfamily A member 18) | 2 | 71.3 | 67.2 | inactive |
| Or13a18 (olfactory receptor family 13 subfamily A member 18) | 3 | 86 | 89.9 | inactive |
| Ctnnbip1 (catenin beta interacting protein 1) | 1 | 76.2 | 64.3 | inactive |
| Ctnnbip1 (catenin beta interacting protein 1) | 2 | 28.2 | 33.6 | inactive |
| Ctnnbip1 (catenin beta interacting protein 1) | 3 | 97.7 | 102 | inactive |
| Pdcd2 (programmed cell death 2) | 1 | 84.5 | 80.7 | inactive |
| Pdcd2 (programmed cell death 2) | 2 | 110 | 142 | inactive |
| Nfasc (neurofascin) | 1 | 95.8 | 80.2 | inactive |
| Nfasc (neurofascin) | 2 | 67.4 | 67.5 | inactive |
| Eri3 (exoribonuclease 3) | 1 | 84.8 | 76.4 | inactive |
| Eri3 (exoribonuclease 3) | 2 | 78.7 | 91.5 | inactive |
| Eri3 (exoribonuclease 3) | 3 | 151 | 121 | active |
| Srebf2 (sterol regulatory element binding factor 2) | 1 | 114 | 117 | inactive |
| Srebf2 (sterol regulatory element binding factor 2) | 2 | 112 | 84.5 | inactive |
| Srebf2 (sterol regulatory element binding factor 2) | 3 | 76.4 | 69.8 | inactive |
| Laptm5 (lysosomal-associated protein transmembrane 5) | 1 | 92.7 | 90.5 | inactive |
| Laptm5 (lysosomal-associated protein transmembrane 5) | 2 | 111 | 97.1 | inactive |
| Laptm5 (lysosomal-associated protein transmembrane 5) | 3 | 102 | 98.4 | inactive |
| Il22ra2 (interleukin 22 receptor, alpha 2) | 1 | 109 | 68.6 | inactive |
| Il22ra2 (interleukin 22 receptor, alpha 2) | 2 | 119 | 74.4 | inactive |
| Il22ra2 (interleukin 22 receptor, alpha 2) | 3 | 65.4 | 78.6 | inactive |
| Sec11a (SEC11 homolog A, signal peptidase complex subunit) | 1 | 49.1 | 51.7 | inactive |
| Sec11a (SEC11 homolog A, signal peptidase complex subunit) | 2 | 55.5 | 68.9 | inactive |
| Sec11a (SEC11 homolog A, signal peptidase complex subunit) | 3 | 41.6 | 53 | inactive |
| Dhx40 (DEAH-box helicase 40) | 1 | 153 | 132 | active |
| Dhx40 (DEAH-box helicase 40) | 2 | 64.1 | 69.2 | inactive |
| Dhx40 (DEAH-box helicase 40) | 3 | 62.6 | 67.2 | inactive |
| Bmp5 (bone morphogenetic protein 5) | 1 | 41.4 | 46.3 | inactive |
| Bmp5 (bone morphogenetic protein 5) | 2 | 50.9 | 54.3 | inactive |
| Bmp5 (bone morphogenetic protein 5) | 3 | 59.3 | 73.6 | inactive |
| Spag8 (sperm associated antigen 8) | 1 | 123 | 109 | active |
| Spag8 (sperm associated antigen 8) | 2 | 86.3 | 52.3 | inactive |
| Spag8 (sperm associated antigen 8) | 3 | 66 | 62.9 | inactive |
| Rnf5 (ring finger protein 5) | 1 | 52.6 | 58.7 | inactive |
| Rnf5 (ring finger protein 5) | 2 | 46 | 79.7 | inactive |
| Rnf5 (ring finger protein 5) | 3 | 85 | 100 | inactive |
| Kctd4 (potassium channel tetramerisation domain containing 4) | 1 | 75.1 | 78.5 | inactive |
| Kctd4 (potassium channel tetramerisation domain containing 4) | 2 | 111 | 112 | inactive |
| Or9k2 (olfactory receptor family 9 subfamily K member 2) | 1 | 56.5 | 47 | inactive |
| Or9k2 (olfactory receptor family 9 subfamily K member 2) | 2 | 51.9 | 51.2 | inactive |
| Or9k2 (olfactory receptor family 9 subfamily K member 2) | 3 | 85.7 | 44.5 | inactive |
| Pkp3 (plakophilin 3) | 1 | 30.6 | 48 | inactive |
| Pkp3 (plakophilin 3) | 2 | 115 | 136 | inactive |
| Pkp3 (plakophilin 3) | 3 | 83.1 | 126 | inactive |
| Tcim (transcriptional and immune response regulator) | 1 | 65.9 | 87.2 | inactive |
| Tcim (transcriptional and immune response regulator) | 2 | 55.4 | 46.3 | inactive |
| Tcim (transcriptional and immune response regulator) | 3 | 65.4 | 83 | inactive |
| Map2k3 (mitogen-activated protein kinase kinase 3) | 1 | 141 | 57.3 | active |
| Map2k3 (mitogen-activated protein kinase kinase 3) | 2 | 39.1 | 18.7 | inactive |
| Map2k3 (mitogen-activated protein kinase kinase 3) | 3 | 76.3 | 72.3 | inactive |
| Zfp747 (zinc finger protein 747) | 1 | 97.7 | 88.3 | inactive |
| Zfp747 (zinc finger protein 747) | 2 | 32.1 | 78.8 | inactive |
| Zfp747 (zinc finger protein 747) | 3 | 115 | 82.7 | inactive |
